Measurements reported in PubChem BioAssay AID1159584 (Peter MacCallum Cancer Centre, 2016)

- Screen: 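Genes whose loss is lethal only together with E-cadherin loss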 (primary screen)
- Cells: human MCF10A breast epithelial cells, parental and CDH1-null
- Reagents: siRNA against human genes
- Measured: 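Cell viability by CellTiter-Glo ATP luminescence, each line scaled to the mean of mock wells across plates, then CDH1-null over parental ratio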
- Scale: CDH1-null / parental viability ratio: higher = CDH1-null cells survive relatively better than parental
Here is a random part of about 18,000 deposited reagents. Not all columns of the deposit are shown. The record does not give: the amount of reagent, the time to read-out.

{"gene knocked down":"TEX15 (testis expressed 15, meiosis and synapsis associated)","CDH1-null / parental viability ratio":1.22}
{"gene knocked down":"CEP20 (centrosomal protein 20)","CDH1-null / parental viability ratio":0.93}
{"gene knocked down":"SLC29A1","CDH1-null / parental viability ratio":1}
{"gene knocked down":"PAICS","CDH1-null / parental viability ratio":0.99}
{"gene knocked down":"KAT6A (lysine acetyltransferase 6A)","CDH1-null / parental viability ratio":0.81}
{"gene knocked down":"ETFB (electron transfer flavoprotein subunit beta)","CDH1-null / parental viability ratio":1.01}
{"gene knocked down":"SGCG (sarcoglycan gamma)","CDH1-null / parental viability ratio":0.88}
{"gene knocked down":"RPL5 (ribosomal protein L5)","CDH1-null / parental viability ratio":1.45}
{"gene knocked down":"ADRA2A (adrenoceptor alpha 2A)","CDH1-null / parental viability ratio":1.38}
{"gene knocked down":"NBPF11 (NBPF member 11)","CDH1-null / parental viability ratio":1.17}
{"gene knocked down":"H4C7 (H4 clustered histone 7)","CDH1-null / parental viability ratio":0.95}
{"gene knocked down":"PDP2 (pyruvate dehydrogenase phosphatase catalytic subunit 2)","CDH1-null / parental viability ratio":1.38}
{"gene knocked down":"GDE1 (glycerophosphodiester phosphodiesterase 1)","CDH1-null / parental viability ratio":0.87}
{"gene knocked down":"CTSF (cathepsin F)","CDH1-null / parental viability ratio":1.09}
{"gene knocked down":"TRIM65 (tripartite motif containing 65)","CDH1-null / parental viability ratio":0.77}
{"gene knocked down":"MGAT5B","CDH1-null / parental viability ratio":1.14}
{"gene knocked down":"KLHL23 (kelch like family member 23)","CDH1-null / parental viability ratio":1.12}
{"gene knocked down":"TMEM234 (transmembrane protein 234)","CDH1-null / parental viability ratio":0.94}
{"gene knocked down":"LRRC24 (leucine rich repeat containing 24)","CDH1-null / parental viability ratio":1.17}
{"gene knocked down":"SMAD5 (SMAD family member 5)","CDH1-null / parental viability ratio":0.94}
{"gene knocked down":"PGGT1B (protein geranylgeranyltransferase type I subunit beta)","CDH1-null / parental viability ratio":1.06}
{"gene knocked down":"RUSF1 (RUS family member 1)","CDH1-null / parental viability ratio":1.07}
{"gene knocked down":"PRSS54 (serine protease 54)","CDH1-null / parental viability ratio":1.18}
{"gene knocked down":"CCDC93 (CCC complex scaffolding subunit CCDC93)","CDH1-null / parental viability ratio":0.74}
{"gene knocked down":"OR1M1 (olfactory receptor family 1 subfamily M member 1)","CDH1-null / parental viability ratio":0.72}
{"gene knocked down":"FOXH1 (forkhead box H1)","CDH1-null / parental viability ratio":1.41}
{"gene knocked down":"ZCCHC2 (zinc finger CCHC-type containing 2)","CDH1-null / parental viability ratio":1}
{"gene knocked down":"RAI14 (retinoic acid induced 14)","CDH1-null / parental viability ratio":1.04}
{"gene knocked down":"MAD2L2 (mitotic arrest deficient 2 like 2)","CDH1-null / parental viability ratio":0.71}
{"gene knocked down":"ECT2 (epithelial cell transforming 2)","CDH1-null / parental viability ratio":0.93}
{"gene knocked down":"FOXD1 (forkhead box D1)","CDH1-null / parental viability ratio":0.95}
{"gene knocked down":"UNC93A (unc-93 homolog A)","CDH1-null / parental viability ratio":1.23}
{"gene knocked down":"METAP1D (methionyl aminopeptidase type 1D, mitochondrial)","CDH1-null / parental viability ratio":1.19}
{"gene knocked down":"GARIN6 (golgi associated RAB2 interactor family member 6)","CDH1-null / parental viability ratio":0.86}
{"gene knocked down":"ITCH (itchy E3 ubiquitin protein ligase)","CDH1-null / parental viability ratio":1.18}

Records listed so far whose target name begins with T or t:
{"gene knocked down":"TEX15 (testis expressed 15, meiosis and synapsis associated)","CDH1-null / parental viability ratio":1.22}
{"gene knocked down":"TRIM65 (tripartite motif containing 65)","CDH1-null / parental viability ratio":0.77}
{"gene knocked down":"TMEM234 (transmembrane protein 234)","CDH1-null / parental viability ratio":0.94}
